This note sets out measurements from paper PMC9622807.

The chains behind the UniProt entries cited, without tags or fusion partners.
UniProt Q08211: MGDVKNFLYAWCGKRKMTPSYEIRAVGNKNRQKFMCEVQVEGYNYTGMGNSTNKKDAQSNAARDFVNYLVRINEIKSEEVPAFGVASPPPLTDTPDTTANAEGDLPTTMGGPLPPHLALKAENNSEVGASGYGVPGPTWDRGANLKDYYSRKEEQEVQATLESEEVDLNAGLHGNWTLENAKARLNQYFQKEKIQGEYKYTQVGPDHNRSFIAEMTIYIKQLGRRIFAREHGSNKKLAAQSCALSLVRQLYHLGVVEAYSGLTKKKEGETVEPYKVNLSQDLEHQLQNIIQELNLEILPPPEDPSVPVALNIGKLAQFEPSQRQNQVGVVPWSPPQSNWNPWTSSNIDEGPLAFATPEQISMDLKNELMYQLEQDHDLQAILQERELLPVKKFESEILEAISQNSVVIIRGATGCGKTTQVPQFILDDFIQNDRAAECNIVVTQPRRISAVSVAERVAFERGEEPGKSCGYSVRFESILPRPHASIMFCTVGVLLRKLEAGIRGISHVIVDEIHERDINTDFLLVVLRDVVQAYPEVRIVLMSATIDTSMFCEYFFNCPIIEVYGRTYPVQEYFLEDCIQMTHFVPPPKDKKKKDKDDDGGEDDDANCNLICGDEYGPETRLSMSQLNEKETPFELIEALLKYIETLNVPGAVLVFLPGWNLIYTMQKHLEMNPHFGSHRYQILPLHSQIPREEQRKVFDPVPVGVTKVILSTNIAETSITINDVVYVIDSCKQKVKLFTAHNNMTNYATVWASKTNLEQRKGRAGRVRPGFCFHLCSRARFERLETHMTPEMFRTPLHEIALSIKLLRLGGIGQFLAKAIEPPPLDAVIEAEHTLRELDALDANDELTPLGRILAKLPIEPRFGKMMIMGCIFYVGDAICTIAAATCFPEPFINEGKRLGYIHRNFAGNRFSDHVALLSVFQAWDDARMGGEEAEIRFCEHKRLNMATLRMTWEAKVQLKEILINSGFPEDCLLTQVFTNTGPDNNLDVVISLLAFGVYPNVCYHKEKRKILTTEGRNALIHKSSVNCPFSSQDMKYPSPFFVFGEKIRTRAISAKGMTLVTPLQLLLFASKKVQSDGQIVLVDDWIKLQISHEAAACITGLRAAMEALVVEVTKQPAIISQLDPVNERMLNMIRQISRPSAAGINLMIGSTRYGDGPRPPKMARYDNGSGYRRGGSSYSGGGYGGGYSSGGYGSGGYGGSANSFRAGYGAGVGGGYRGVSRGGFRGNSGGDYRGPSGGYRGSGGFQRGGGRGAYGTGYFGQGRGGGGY

These are yes or no findings as the source states them, for the method shown. Binding seen in cells or lysates may run through a third protein. Some entries that bind do so weakly or less than the wild type.

The assay addresses DExH-Box Helicase 9 (DHX9) (human (endogenous in human TECs)) (UniProt Q08211). The experiment in a line: co-IP; immunoprecipitation (anti-DHX9 is listed for immunoprecipitation) and western blot, Supplementary Fig. 2j; cells and treatment not shown.

B1: p150 isoform of ADAR1 (protein, UniProt P55265-1 1-1226)
chain: MNPRQGYSLSGYYTHPFQGYEHRQLRYQQPGPGSSPSSFLLKQIEFLKGQLPEAPVIGKQTPSLPPSLPGLRPRFPVLLASSTRGRQVDIRGVPRGVHLRSQGLQRGFQHPSPRGRSLPQRGVDCLSSHFQELSIYQDQEQRILKFLEELGEGKATTAHDLSGKLGTPKKEINRVLYSLAKKGKLQKEAGTPPLWKIAVSTQAWNQHSGVVRPDGHSQGAPNSDPSLEPEDRNSTSVSEDLLEPFIAVSAQAWNQHSGVVRPDSHSQGSPNSDPGLEPEDSNSTSALEDPLEFLDMAEIKEKICDYLFNVSDSSALNLAKNIGLTKARDINAVLIDMERQGDVYRQGTTPPIWHLTDKKRERMQIKRNTNSVPETAPAAIPETKRNAEFLTCNIPTSNASNNMVTTEKVENGQEPVIKLENRQEARPEPARLKPPVHYNGPSKAGYVDFENGQWATDDIPDDLNSIRAAPGEFRAIMEMPSFYSHGLPRCSPYKKLTECQLKNPISGLLEYAQFASQTCEFNMIEQSGPPHEPRFKFQVVINGREFPPAEAGSKKVAKQDAAMKAMTILLEEAKAKDSGKSEESSHYSTEKESEKTAESQTPTPSATSFFSGKSPVTTLLECMHKLGNSCEFRLLSKEGPAHEPKFQYCVAVGAQTFPSVSAPSKKVAKQMAAEEAMKALHGEATNSMASDNQPEGMISESLDNLESMMPNKVRKIGELVRYLNTNPVGGLLEYARSHGFAAEFKLVDQSGPPHEPKFVYQAKVGGRWFPAVCAHSKKQGKQEAADAALRVLIGENEKAERMGFTEVTPVTGASLRRTMLLLSRSPEAQPKTLPLTGSTFHDQIAMLSHRCFNTLTNSFQPSLLGRKILAAIIMKKDSEDMGVVVSLGTGNRCVKGDSLSLKGETVNDCHAEIISRRGFIRFLYSELMKYNSQTAKDSIFEPAKGGEKLQIKKTVSFHLYISTAPCGDGALFDKSCSDRAMESTESRHYPVFENPKQGKLRTKVENGEGTIPVESSDIVPTWDGIRLGERLRTMSCSDKILRWNVLGLQGALLTHFLQPIYLKSVTLGYLFSQGHLTRAICCRVTRDGSAFEDGLRHPFIVNHPKVGRVSIYDSKRQSGKTKETSVNWCLADGYDLEILDGTRGTVDGPRNELSRVSKKNIFLLFKKLCSFRYRRDLLRLSYGEAKKAARDYETAKNYFKKGLKDMGYGNWISKPQEEKNFYLCPV
Consider B1, for which the binding entry was “binds”.
